Experimental data taken from the supplement of paper PMC3334620.
In all, about 33,000 sequences were measured (“E-score (-0.5 to 0.5)”: median about -0.0059, highest 2% from about 0.26 on). The list shows a part of the results.

Biological target: T1, Cin5 (UniProt P40917)
T1 sequence: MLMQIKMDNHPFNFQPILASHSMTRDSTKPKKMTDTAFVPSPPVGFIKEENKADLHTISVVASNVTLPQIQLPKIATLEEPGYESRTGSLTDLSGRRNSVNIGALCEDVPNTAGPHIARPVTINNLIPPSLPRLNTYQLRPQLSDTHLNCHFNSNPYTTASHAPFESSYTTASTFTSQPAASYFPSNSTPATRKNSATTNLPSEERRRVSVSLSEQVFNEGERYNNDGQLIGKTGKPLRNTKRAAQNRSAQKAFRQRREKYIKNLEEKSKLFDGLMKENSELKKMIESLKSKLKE
Experiment: PBM E-score (8-mer binding enrichment) (E-score (-0.5 to 0.5)); higher = stronger / more preferred TF binding
Conditions: protein concentration: 100 nM; construct: GST-full length
Procedure, shortened: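 Universal all-10-mer Agilent arrays, fresh or stripped once, were converted to double-stranded form by primer extension. GST-tagged yeast transcription factors from PURExpress in vitro transcription/translation, full-length or DNA-binding domain only, were applied at about 100-200 nM and detected with fluorescent anti-GST. After masliner normalisation, the Universal PBM Analysis Suite scored each ungapped eight-base word together with its reverse complement by E-score.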

Sequence	PBM E-score
AGATCATA	0.186
CCGCAAGA	0.0476
AATATAGA	0.186
AAACTCCT	-0.177
AGGTGCAC	0.00232
AAGTTTAT	0.178
GCATAGCA	-0.0462
GACCTTGC	-0.25
GGGGTCTA	-0.0419
GTATCCCA	0.0573
ATTCGCAA	0.171
AAAGGCAA	0.134
CACTACTA	0.14
CACCCATG	-0.0397
GTAAAGAA	0.0223
CGAATGAC	0.275
AAGAAGGC	-0.0773
CGTAGCTC	0.0879
CATTTAAG	0.0446
CACTCTAA	0.00766
GACGCCTC	-0.0208
GGGAATTA	0.135
ACCGTTAC	-0.0809
GCAGTTAC	0.139
CATTATAG	0.185

Sequence	PBM E-score
GTTACAGA	-0.00519
ATCTCTCG	-0.027
CCCACGCC	-0.267
ATACGAAT	0.0148
TCGATTCA	0.108
CCTCATCA	0.106
ATGACTTC	0.0774
ACTTTCCT	0.119
CGCAAGCC	0.0497
GACGGCAA	-0.0246
CATTTGGC	-0.0189
GTGACTTA	0.0722
ACGCCTGA	-0.0546
AAGGTAAG	0.113
TATGCGCA	0.0647
ACGCGACC	-0.0572
CAATCGCG	0.0471
GGCAGGGA	-0.0516
TCATGGCA	-0.0173
CGTCGAGC	-0.0762
TAACCCAA	0.0919
CCCAATTC	0.231
AGTAAGGA	0.0657
AGTAGTAC	0.225
CAATAAGC	0.0492

Sequence	PBM E-score
ATATGAGC	0.0395
GGCATACC	-0.0672
AAGGTTAT	0.00317
CAAAGCTG	0.0494
AACCGAGT	-0.135
AACTGTTA	0.209
CCTGCGTA	-0.115
GGCAAAGA	0.0547
ACACGTCG	-0.319
AATGGTTC	0.02
GAGTGGCC	-0.18
AGTGCGTG	-0.0238
ATGAGACA	0.163
GACCGAAC	-0.0429
GCATCGCC	-0.144
ATAGATAC	0.224
GTACACGA	0.14
CCGTATGA	0.0393
TTACTGAA	0.092
AGCAGTCC	-0.143
CGCGCTGA	0.104
GACATTCA	-0.0105
CTAAGACA	0.0386
GACAAATC	0.16
AGGCCCTG	-0.258

Part of the list above, as a markdown table:

| Sequence | PBM E-score |
| --- | --- |
| CCCACGCC | -0.267 |
| ATACGAAT | 0.0148 |

Continued:

Sequence	PBM E-score
GAAAAAAA	0.204
CCGGTTTC	0.0044
TCTGCTCA	-0.144
CAAAAGGG	-0.141
GAAAAGAC	0.0608
CGCCTTAC	-0.18
GAAATGCA	0.141
GCGCTGCC	-0.32
CAATCGAG	0.0295
ACCATGTC	-0.0115
CGGTTTTA	0.0231
CATTCCCC	0.11
CCTAAGCA	0.155
GCGTGACA	0.0384
CTGCTATA	0.117
GGAAGTAA	0.161
CGCTGGAA	-0.174
GACATGAC	-0.128
GGTAATTA	0.188
CCGAATTC	0.015
ATCACGGG	-0.0407
AAGCTCTA	-0.00578
CGACGGCA	-0.198
GAAGCTGA	0.0805
CACTACGA	-0.0486

Sequence	PBM E-score
GGATTAGA	0.165
AGATAACG	0.242
GATTTACA	0.122
AGTTTTTG	0.107
GCACCGAC	-0.0796
ACGTTGCT	0.188
CACTGTAC	-0.0867
CATAATGC	0.0534
GGCAGGAC	-0.138
GCCTCCCA	-0.249
GAACGACA	0.0804
ATTACTTA	0.411
CTTATTTC	0.238
CGTTACCA	0.0697
CCGTACCA	0.0407
AACCCGCG	0.157
CTAAACAG	-0.0317
AACATGTG	0.257
CGGTGACA	-0.0328
CATAGCAC	0.0563
CCCCGACG	-0.00202
CTAGACGC	-0.204
CTAAAGAG	-0.125
AAAAGTGC	0.0297
GAATCATA	0.152

Sequence	PBM E-score
CATCACTA	0.0954
GTCATAAC	0.0128
CCACCGGG	-0.196
CATTTAAA	0.193
AGGCCAGA	-0.0898
CCGGTTTA	-0.0883
AATCACCA	0.212
AACTAAAT	0.167
ACAGGCCC	-0.267
CCACTTTC	-0.0281
CAGGGACG	-0.205
TCGGCCAA	-0.00266
CGAATGGC	0.195
GGCCACGA	-0.163
CCCACTGC	0.0176
CAGCCCAA	0.0141
TAGCTCCA	-0.0567
CGAACCGA	0.0339
AGTGGCGG	-0.0216
TCGTGCCA	-0.134
CATTCTTC	0.16
TACCAAAA	0.0202
GTAACGAC	-0.058
CACTAGCA	-0.0696
ATGGGCTG	-0.0265

Sequence	PBM E-score
AGATACGA	0.211
TCGTCACA	0.0131
AGAAAAAC	-0.076
CTCTTAGA	-0.0511
CCGGTCCC	-0.0708
ATTACGAG	0.299
AGATTATG	0.248
AATTAGCC	-0.0635
AGCGTGGG	-0.184
CACATGCG	-0.0249
ACATCATA	0.258
CCATCCCC	-0.141
CGGGATCC	0.144
CTTTACTA	0.252
CCGTGAAA	0.0835
GCCCCTGA	-0.0843
AACTTGCA	0.0959
ACGGTTTG	-0.161
ATAAATAA	0.321
CAATGGAA	0.0943
GTGAGCCA	0.0352
CCTCTTCA	-0.254
ATAAGTAA	0.198
GTACCTCA	0.0535
CTAGGCAC	-0.22

Sequence	PBM E-score
GCCTGATA	-0.0274
AAAGGAAG	-0.167
CTCGCGAA	-0.0923
ACATACCG	-0.0577
AGCATCAT	0.137
CAAATTTC	0.11
TACGATAA	0.22
AACTCGCT	0.149
AGCTCGCA	0.0516
GACCACTC	-0.133
GAGAGCCC	-0.386
ACAGTCTG	-0.14
GAGCCAGA	-0.0535
TCGCCCGA	-0.0633
CGGATAGC	0.0584
CCGTCAAA	-0.133
GATTTGAA	0.121
ATTAGAGC	0.105
ACATCGAT	0.0571
TACTCAGA	0.154
ACTAAGGA	0.0227
CTGACTGC	-0.148
GTGGAGGA	-0.0744
GACACGCC	-0.00175
AGCTGGTA	-0.0911

Sequence	PBM E-score
CTCAGTCA	-0.031
GGAAATTA	0.256
ACGGGCGG	-0.214
TCAGCAAA	0.146
ATTTCCTA	0.0639
AAGTTTCT	0.109
ATCCGTCA	0.119
ACGCCTAT	-0.0453
CAAGCCGG	0.0852
TCGACTCA	0.0883
AAGCTTTC	0.122
CGCGACCG	-0.0437
GAGAGCGC	-0.122
GCAGTCTA	-0.0135
GCATCGTA	0.0386
AGTTCGGG	0.168
ATCTGCAG	0.00093
CGCAGTAA	0.0778
GCAGCTAA	-0.147
GAAATTAC	0.204
CACTGTTC	-0.108
TAAGTTCA	0.0195
CTAGCAGC	-0.0739
GCGAACGC	-0.171
CAGCTTGC	-0.0574

Sequence	PBM E-score
ATGTTACA	0.133
CCAGATTA	0.225
ACCCCTTG	-0.237
ACTAGTTC	0.0406
ATATACAG	0.219
GGTTAGTA	0.118
AAAAGTAC	0.181
ACACGGAA	0.107
CAGAGCCA	-0.254
ATAGATGA	0.0621
ATCCTTAC	0.0268
AGGCTTTA	-0.141
CGGGCAAA	-0.0295
ACCCGTGG	-0.206
ATCGATAA	0.132
CAATATGG	0.0326
AACCTACG	-0.0341
GTTTTGGA	-0.163
CTCGACAA	-0.065
AGGTACCT	-0.37
CGTTCGTA	0.243
ACGTACCG	0.017
GAATGATC	-0.046
CCTGAATC	-0.006
TATGGAGA	0.0174

Taken from above:
PBM E-score with AAAGGCAA reads 0.134
PBM E-score with ATGACTTC reads 0.0774
PBM E-score with CAATCGCG reads 0.0471

Additional records

Sequence	PBM E-score
ACCATACA	0.029
GCTAAGAA	-0.152
CGTAAGAG	0.079
GTTGTTAA	0.284
CTTAGCAC	-0.0693
GCTATAAA	0.00468
GACGAAAA	0.211
ACTGCTAC	0.00822
AGTTAGTA	0.106
AGGATCTG	-0.183
CTTAGCCC	-0.0614
AGCCGGCT	-0.174
AGCATCGG	-0.13
GGTTTCCA	-0.121
CGTTAGCA	0.143
GACTTCGC	0.135
CTGTTTGA	0.114
CGCTGTTC	-0.126
AATGTAGG	-0.201
AGTCCCTG	-0.224
CCCTAGAC	-0.112
AGCTGTGG	-0.15
ACCGAACG	0.0281
GCGCGAAA	0.191
GTAAAAAC	0.129

Sequence	PBM E-score
GCTCGGAA	-0.00118
GCTCCCTA	-0.326
CCTAAACG	-0.173
AGTTTTAA	0.141
AGGCTACG	-0.35
ATGGATCA	0.0362
AAGCCTGG	-0.072
CCTGTGGC	-0.187
CAAATCCC	-0.00823
CTGTCCGA	-0.0945
CATATCCA	-0.127
CACAAGAC	-0.0901
AACAGGCT	-0.073
AAGAGTAT	-0.16
AGCACAGC	0.0397
AGGCCGAC	-0.143
TTGGCCAA	-0.0579
GCGCTAGA	0.049
TAACTCTA	0.0799
CAGAACAC	0.00678
TGGCTTAA	0.137
AAGGTTCA	-0.0235
TCGCTAGA	-0.12
ATTGCCAG	0.102
AATACCAC	0.123

Sequence	PBM E-score
AAATTTTG	-0.0524
ACTGTCCT	-0.0109
AATTTCGG	0.0592
AAGTCAGC	0.293
AGCACTGC	-0.0786
GGTACCAC	-0.221
AGACTCGA	-0.143
ATTTGGCG	-0.0495
CTCTGGAC	0.0765
CTCGGCTA	-0.00063
GCATAAGA	0.0468
ATAGTACC	0.00218
CTGGTACC	-0.272
TTCGCCAA	-0.193
CATCGGCG	-0.0538
ACAGTGAC	-0.0331
CGTCAATA	-0.0685
ATGCGGAC	-0.0741
GCTTCTCC	-0.142
CCGCCACC	-0.15
ACTCTGCG	-0.0404
ATAGCGCG	0.108
ACACTCTG	-0.0198
TAGCCCAA	-0.0193
CAACAAAC	0.106

A portion from the list above:
Sequence	PBM E-score
GGTACCAC	-0.221
AGACTCGA	-0.143
ATTTGGCG	-0.0495

Continued.

Sequence	PBM E-score
GTGCACAC	-0.197
CTAATCCA	0.219
CAGAACCG	0.0518
GAACTATC	0.0863
AACGGGTC	-0.2
AGCAAGAT	0.107
GTTTTGTA	0.173
GACGCGAC	-0.0493
CTCCCTTC	-0.312
CTCTTGAC	-0.177
TACTTCTA	0.0943
AATACAGA	0.106
ACGAGAGG	-0.0722
CGTACATA	0.191
AAGCCGAG	0.0634
ACCCGACT	0.0111
GCGAATCC	0.0051
AGCGGTCA	0.00136
TCTATTCA	0.173
